We go through one molecule from patent US20200392203A1 (YEDA RESEARCH AND DEVELOPMENT, published 2020).

Results are given in words; binding and its absence hold for the method and conditions named. Binding seen in cells or lysates may run through a third protein. Some entries that bind do so weakly or less than the wild type.

For this assay, the target named is GP1MACV (GP1 domain of Machupo virus, co-expressed with sAD for crystallography) (Machupo virus (MACV)) (UniProt Q6IUF7). The assay is described as follows: co-expression, co-purification and crystal structure at 2.7 Å.

B1: soluble apical domain (sAD) of Neotoma albigula (White-throated woodrat) TfR1 (receptor)
chain: GSKIQVKCSAPNSVTITNASGGLYLVEYPEGYVAYSKATEVTGKLVHANFGTKKDFEDLDYAVNGSIVIVRAGKITIAEKVANAQSFNAIGVLIYKDRTKYPISRADEPLQGHSGLPSIPVQTISREAAEKLFQNMERDCPRSWNTDSSCKLELLQNRNVKLTVNNCLKE
In the case of B1, the binding entry was “binds”.
